Patent US3957788A (priority 1974, dated 1976)
Structures can show the parent of a compound that is named as a salt.

Experiment: in vivo
Details: mouse, iv

Work on `CN1CC[C@]23c4c5ccc(O)c4O[C@H]2[C@@H](O)C=C[C@H]3[C@H]1C5` [compound 4, Morphine hydrochloride] yielded a selectivity ratio of 33.1.
